Publication PMC8891368
These are yes or no findings as the source states them, for the method shown. In cells and extracts the contact can be indirect. Some binding calls cover weakened binding; strength is not graded here. For part of these data: Where a sequence is shown, tags or fusion partners need not be part of it. Each block holds one molecule with its values, some of them ahead of it.

Protein sequences, listed by entry. Tags and fused reporters are not part of them.
UniProt Q16665: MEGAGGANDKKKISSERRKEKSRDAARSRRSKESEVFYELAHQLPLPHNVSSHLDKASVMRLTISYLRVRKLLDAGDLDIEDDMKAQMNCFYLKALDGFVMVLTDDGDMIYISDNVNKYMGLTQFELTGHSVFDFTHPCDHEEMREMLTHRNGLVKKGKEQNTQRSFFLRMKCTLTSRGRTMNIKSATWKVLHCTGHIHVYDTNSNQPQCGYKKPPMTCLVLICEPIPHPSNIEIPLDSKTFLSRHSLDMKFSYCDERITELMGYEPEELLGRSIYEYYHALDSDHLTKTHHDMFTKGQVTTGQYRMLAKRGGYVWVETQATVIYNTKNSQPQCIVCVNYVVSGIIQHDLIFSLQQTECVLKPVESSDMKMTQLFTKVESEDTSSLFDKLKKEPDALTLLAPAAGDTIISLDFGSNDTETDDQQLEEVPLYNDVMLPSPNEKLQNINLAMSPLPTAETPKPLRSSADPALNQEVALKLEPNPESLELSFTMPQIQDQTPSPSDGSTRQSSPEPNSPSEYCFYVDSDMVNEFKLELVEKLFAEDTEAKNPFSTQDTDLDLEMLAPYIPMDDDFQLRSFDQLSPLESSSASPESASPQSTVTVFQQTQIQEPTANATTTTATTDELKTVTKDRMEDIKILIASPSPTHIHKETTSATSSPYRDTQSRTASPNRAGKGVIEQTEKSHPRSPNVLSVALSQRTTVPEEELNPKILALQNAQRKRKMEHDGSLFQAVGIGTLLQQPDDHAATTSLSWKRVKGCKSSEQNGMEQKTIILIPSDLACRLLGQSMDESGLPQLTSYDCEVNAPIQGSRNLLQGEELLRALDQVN

Key:
[1] = biological target: T1, GST-fused ALDOA (UniProt P04075); experiment: pull-down; GST pull-down; GST fusion as bait, prey 'endogenous transcribed/translated' protein, western blotting; only the target purified
T1 sequence: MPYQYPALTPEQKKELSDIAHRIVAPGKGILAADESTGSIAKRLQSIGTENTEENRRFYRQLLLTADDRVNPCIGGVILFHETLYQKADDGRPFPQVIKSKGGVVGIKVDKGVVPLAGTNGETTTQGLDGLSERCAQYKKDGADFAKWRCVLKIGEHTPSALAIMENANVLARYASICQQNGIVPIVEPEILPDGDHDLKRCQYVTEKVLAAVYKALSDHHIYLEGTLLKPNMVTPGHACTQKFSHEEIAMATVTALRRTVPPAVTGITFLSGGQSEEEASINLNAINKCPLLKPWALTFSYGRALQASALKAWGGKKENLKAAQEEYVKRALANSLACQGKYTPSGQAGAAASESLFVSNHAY

[2] = biological target: hypoxia-inducible factor 1α (HIF-1α) (human (endogenous in MCF-7 and MDA-MB-231)) (UniProt Q16665); experiment: co-IP; endogenous proteins, MCF-7 and MDA-MB-231 lysates, anti-HIF-1α or IgG, western blotting; with or without ATP treatment of the cells
[3] = biological target: GST-fused HIF-1α (UniProt Q16665); experiment: pull-down; GST pull-down; GST fusion as bait, prey 'endogenous transcribed/translated' protein, western blotting; only the target purified

binding [1]: binds
Molecule: endogenous transcribed/translated HIF-1α (from UniProt Q16665 1-826)

binding [2]: binds
B1: aldolase A (ALDOA) (protein, UniProt P04075 1-364)
chain: T1 sequence

binding [3]: binds
B2: endogenous transcribed/translated ALDOA (protein, UniProt P04075 1-364)
chain: T1 sequence
